Reference: doi:10.1101/2020.11.04.368498
These are yes or no findings as the source states them, for the method shown. Some results given as binding are weak or reduced against the parent protein; the word gives no strength. Where a sequence is shown, tags or fusion partners need not be part of it.

Protein sequences, listed by entry. Tags and fused reporters are not part of them.
UniProt O75494: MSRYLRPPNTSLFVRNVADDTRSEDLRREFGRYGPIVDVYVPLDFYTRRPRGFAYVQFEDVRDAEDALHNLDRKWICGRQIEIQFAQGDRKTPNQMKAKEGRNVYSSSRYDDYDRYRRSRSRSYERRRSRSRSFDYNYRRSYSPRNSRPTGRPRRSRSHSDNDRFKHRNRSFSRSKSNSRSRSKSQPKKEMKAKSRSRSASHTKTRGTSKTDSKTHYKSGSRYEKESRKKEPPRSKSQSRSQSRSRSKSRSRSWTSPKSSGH
UniProt Q8WXF0: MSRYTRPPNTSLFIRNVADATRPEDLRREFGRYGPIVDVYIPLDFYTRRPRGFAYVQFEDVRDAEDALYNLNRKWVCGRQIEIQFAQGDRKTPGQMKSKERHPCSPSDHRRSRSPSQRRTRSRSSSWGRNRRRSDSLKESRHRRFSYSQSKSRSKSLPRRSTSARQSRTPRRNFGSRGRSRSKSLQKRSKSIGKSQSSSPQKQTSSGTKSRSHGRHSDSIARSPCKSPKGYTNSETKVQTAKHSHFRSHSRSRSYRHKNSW
UniProt Q07955: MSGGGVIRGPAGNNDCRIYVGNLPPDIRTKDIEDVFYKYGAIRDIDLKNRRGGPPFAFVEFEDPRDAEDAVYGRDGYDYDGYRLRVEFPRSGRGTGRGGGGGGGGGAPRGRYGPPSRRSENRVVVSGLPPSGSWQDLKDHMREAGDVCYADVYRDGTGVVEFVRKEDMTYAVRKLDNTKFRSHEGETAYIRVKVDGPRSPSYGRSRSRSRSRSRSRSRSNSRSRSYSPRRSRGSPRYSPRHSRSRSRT
UniProt Q13242: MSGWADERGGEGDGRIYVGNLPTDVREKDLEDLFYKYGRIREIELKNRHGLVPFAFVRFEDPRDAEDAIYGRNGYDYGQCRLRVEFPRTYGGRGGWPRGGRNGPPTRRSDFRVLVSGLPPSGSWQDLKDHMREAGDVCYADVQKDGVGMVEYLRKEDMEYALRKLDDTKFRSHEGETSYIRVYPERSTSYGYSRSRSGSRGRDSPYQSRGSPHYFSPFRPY

Assays:
Test in all cases: pull-down
FLAG-tagged SRSF11 = biological target: T1, FLAG-tagged SRSF11 (UniProt Q05519)
T1 sequence: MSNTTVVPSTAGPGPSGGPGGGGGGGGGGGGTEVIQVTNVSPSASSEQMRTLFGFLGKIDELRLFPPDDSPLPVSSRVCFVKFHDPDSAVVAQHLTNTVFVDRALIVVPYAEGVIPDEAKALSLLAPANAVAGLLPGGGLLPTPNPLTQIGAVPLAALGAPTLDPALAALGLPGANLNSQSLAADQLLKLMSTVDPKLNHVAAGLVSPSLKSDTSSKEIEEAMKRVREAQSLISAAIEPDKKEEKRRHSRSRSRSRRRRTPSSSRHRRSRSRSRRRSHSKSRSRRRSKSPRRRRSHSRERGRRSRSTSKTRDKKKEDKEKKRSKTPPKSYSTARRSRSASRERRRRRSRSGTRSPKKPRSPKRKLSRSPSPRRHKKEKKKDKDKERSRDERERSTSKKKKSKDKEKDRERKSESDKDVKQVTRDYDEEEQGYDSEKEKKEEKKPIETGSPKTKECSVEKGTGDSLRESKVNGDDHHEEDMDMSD

FLAG-tagged SRSF10 = FLAG-tagged SRSF10 (UniProt O75494)
FLAG-tagged SRSF12 = FLAG-tagged SRSF12 (UniProt Q8WXF0)
FLAG-tagged SRSF7 = biological target: T2, FLAG-tagged SRSF7 (UniProt Q16629)
T2 sequence: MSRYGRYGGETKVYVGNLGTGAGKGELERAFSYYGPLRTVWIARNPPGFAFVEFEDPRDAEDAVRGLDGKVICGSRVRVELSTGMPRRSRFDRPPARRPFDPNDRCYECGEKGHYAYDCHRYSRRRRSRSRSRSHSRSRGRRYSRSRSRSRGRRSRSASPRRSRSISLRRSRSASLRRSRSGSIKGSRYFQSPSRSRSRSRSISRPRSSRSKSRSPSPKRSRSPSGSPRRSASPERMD

FLAG-tagged SRSF4 = biological target: T3, FLAG-tagged SRSF4 (UniProt Q08170)
T3 sequence: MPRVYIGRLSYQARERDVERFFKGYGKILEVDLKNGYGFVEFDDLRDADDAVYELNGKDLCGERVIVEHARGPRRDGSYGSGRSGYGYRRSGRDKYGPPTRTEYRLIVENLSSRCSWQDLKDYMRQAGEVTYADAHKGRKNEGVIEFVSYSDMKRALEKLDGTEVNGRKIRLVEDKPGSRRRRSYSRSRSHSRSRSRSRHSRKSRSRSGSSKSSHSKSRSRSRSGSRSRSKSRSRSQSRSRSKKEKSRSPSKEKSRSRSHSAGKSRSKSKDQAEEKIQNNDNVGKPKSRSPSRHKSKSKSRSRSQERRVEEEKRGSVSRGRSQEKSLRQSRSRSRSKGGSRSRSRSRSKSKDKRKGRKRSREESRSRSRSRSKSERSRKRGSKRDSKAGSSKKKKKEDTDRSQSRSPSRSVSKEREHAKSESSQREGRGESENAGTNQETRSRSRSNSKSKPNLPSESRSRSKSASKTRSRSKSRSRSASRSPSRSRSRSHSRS

FLAG-tagged SRSF6 = biological target: T4, FLAG-tagged SRSF6 (UniProt Q13247)
T4 sequence: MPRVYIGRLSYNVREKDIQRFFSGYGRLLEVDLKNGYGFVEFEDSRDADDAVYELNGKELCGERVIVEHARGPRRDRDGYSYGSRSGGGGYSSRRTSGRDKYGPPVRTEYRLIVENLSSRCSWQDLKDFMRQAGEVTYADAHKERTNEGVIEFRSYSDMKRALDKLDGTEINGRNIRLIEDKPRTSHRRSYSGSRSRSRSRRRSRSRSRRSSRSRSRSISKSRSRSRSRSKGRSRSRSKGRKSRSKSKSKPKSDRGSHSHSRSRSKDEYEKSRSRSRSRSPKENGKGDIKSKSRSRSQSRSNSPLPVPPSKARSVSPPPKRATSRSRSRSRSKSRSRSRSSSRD

[1] = biological target: FLAG-tagged SRSF1, full-length (UniProt Q07955)
FLAG-tagged SRSF9 = FLAG-tagged SRSF9 (UniProt Q13242)
GST-tagged SRSF7 = biological target: T5, GST-tagged SRSF7 (UniProt Q16629)
T5 sequence: T2 sequence

- binding (FLAG-tagged SRSF11): binds
- binding (FLAG-tagged SRSF10): binds
- binding (FLAG-tagged SRSF12): binds
- binding (FLAG-tagged SRSF7): binds
- binding (FLAG-tagged SRSF4): binds
- binding (FLAG-tagged SRSF6): binds
- binding [1]: binds
- binding (FLAG-tagged SRSF9): binds
- binding (GST-tagged SRSF7): binds
B1: HIS-tagged Aurora-A (enzyme, UniProt O14965 1-403)
chain: MDRSKENCISGPVKATAPVGGPKRVLVTQQFPCQNPLPVNSGQAQRVLCPSNSSQRIPLQAQKLVSSHKPVQNQKQKQLQATSVPHPVSRPLNNTQKSKQPLPSAPENNPEEELASKQKNEESKKRQWALEDFEIGRPLGKGKFGNVYLAREKQSKFILALKVLFKAQLEKAGVEHQLRREVEIQSHLRHPNILRLYGYFHDATRVYLILEYAPLGTVYRELQKLSKFDEQRTATYITELANALSYCHSKRVIHRDIKPENLLLGSAGELKIADFGWSVHAPSSRRTTLCGTLDYLPPEMIEGRMHDEKVDLWSLGVLCYEFLVGKPPFEANTYQETYKRISRVEFTFPDFVTEGARDLISRLLKHNPSQRPMLREVLEHPWITANSSKPSNCQNKESASKQS
